Reference: PMC11653682
Results are given in words; binding and its absence hold for the method and conditions named. In cells and extracts the contact can be indirect. Some results given as binding are weak or reduced against the parent protein; the word gives no strength.

Amino acid sequences for entries named in this document (tags omitted). Residues count along the entry.
UniProt O88763: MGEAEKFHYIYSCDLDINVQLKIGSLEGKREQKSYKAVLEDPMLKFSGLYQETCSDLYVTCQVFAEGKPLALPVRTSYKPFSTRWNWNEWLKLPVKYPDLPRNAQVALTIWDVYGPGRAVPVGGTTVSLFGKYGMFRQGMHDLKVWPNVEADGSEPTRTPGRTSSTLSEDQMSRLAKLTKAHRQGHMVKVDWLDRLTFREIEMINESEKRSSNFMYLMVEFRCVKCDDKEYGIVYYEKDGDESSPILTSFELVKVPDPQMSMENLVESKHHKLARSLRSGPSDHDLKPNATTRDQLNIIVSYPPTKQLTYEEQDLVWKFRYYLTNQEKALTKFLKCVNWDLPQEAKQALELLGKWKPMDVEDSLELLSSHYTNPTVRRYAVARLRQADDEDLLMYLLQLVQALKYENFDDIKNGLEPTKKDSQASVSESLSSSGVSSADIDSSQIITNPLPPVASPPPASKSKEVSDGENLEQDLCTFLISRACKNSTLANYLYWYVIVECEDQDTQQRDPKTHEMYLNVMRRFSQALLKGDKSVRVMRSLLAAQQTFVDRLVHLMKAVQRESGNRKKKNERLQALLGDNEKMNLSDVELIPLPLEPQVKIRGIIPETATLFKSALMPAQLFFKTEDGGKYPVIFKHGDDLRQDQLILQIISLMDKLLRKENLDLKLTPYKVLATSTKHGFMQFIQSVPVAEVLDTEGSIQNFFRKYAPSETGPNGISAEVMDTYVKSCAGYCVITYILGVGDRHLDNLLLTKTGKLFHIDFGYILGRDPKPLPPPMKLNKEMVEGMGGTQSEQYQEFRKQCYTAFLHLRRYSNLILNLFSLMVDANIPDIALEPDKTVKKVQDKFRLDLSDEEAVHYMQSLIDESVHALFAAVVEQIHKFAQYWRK
UniProt Q91XJ1: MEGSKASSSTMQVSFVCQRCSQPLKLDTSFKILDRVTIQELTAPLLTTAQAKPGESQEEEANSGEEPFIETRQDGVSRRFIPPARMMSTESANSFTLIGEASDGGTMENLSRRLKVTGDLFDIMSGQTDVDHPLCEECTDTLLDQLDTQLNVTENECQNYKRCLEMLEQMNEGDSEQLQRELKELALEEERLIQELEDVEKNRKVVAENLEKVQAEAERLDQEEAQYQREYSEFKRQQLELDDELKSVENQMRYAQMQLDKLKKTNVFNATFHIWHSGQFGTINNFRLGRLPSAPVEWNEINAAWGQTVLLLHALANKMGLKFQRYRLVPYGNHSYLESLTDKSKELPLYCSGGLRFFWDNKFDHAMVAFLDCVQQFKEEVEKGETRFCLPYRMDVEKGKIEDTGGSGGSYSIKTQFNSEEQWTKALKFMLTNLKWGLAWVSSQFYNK
UniProt P04785, residues 20-509: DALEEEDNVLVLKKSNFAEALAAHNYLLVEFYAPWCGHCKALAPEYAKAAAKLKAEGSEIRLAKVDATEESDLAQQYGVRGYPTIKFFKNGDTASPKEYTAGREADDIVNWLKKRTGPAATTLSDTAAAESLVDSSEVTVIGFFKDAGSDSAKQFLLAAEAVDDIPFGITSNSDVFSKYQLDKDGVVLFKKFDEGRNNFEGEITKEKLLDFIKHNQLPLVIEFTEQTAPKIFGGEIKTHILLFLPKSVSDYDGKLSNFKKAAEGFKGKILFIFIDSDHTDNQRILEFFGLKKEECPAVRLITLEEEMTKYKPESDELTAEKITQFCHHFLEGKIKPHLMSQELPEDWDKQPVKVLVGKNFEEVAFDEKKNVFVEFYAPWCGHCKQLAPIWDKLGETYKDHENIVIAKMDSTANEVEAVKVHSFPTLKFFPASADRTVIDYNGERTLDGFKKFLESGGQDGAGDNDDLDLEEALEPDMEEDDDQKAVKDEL

target: T1, aspartate aminotransferase (GOT2) (not stated (cells of the IP not named; H9C2 in the neighbouring experiments)) (UniProt P00507); experiment: co-IP; IP of GOT2, partners detected by Western blotting; cells not named; X-ray or aloe emodin treatment
T1 sequence: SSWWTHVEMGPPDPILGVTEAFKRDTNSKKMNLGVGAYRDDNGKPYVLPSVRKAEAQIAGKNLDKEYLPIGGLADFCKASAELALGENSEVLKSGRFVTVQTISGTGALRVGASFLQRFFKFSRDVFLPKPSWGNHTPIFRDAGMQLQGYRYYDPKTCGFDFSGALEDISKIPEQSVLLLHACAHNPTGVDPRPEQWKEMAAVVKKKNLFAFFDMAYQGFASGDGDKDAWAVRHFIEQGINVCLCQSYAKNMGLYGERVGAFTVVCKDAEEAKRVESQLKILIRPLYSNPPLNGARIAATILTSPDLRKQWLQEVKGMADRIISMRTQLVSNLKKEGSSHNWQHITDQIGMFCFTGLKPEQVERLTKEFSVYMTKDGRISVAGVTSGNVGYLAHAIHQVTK

Row | binding | Substance
1 | binds | VPS34 (from UniProt O88763 1-887)
2 | binds | beclin1 (from UniProt Q91XJ1 1-448)
3 | binds | protein disulfide‐isomerase (P4HB) (from UniProt P04785 20-509)
